This passage reports binding results from publication PMC4809290.

By UniProt entry, the sequences of proteins in these tests, tags left out.
UniProt O49687: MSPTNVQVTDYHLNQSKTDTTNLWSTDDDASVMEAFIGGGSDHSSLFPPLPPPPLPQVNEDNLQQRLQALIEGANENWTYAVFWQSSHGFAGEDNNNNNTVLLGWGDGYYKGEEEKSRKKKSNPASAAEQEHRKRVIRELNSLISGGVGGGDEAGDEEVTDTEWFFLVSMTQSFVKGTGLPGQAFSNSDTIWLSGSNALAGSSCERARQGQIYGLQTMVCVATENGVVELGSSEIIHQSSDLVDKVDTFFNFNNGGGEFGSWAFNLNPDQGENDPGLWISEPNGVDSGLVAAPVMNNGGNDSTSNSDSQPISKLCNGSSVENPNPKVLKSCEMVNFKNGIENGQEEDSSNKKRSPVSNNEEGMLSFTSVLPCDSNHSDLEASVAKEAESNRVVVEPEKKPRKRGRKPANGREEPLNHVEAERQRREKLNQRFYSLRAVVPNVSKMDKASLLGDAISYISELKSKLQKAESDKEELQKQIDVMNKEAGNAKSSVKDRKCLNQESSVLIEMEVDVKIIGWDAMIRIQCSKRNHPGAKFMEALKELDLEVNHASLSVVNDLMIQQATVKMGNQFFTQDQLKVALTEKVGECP
UniProt Q9FIP9: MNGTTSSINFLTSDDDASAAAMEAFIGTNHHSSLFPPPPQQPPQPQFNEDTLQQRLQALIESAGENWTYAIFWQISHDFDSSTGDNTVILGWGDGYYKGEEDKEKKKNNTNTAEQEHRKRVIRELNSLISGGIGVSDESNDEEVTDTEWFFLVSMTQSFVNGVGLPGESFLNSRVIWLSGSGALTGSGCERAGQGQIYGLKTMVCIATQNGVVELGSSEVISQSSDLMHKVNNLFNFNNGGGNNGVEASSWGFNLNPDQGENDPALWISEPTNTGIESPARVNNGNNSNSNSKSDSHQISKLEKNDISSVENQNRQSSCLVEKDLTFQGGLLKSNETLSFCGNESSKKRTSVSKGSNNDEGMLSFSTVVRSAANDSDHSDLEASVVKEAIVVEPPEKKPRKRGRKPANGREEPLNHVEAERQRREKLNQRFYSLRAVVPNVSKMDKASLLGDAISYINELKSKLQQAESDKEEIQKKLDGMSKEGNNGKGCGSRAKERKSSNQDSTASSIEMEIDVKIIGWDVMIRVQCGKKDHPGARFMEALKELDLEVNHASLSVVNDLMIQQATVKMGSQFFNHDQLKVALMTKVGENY
UniProt Q39204: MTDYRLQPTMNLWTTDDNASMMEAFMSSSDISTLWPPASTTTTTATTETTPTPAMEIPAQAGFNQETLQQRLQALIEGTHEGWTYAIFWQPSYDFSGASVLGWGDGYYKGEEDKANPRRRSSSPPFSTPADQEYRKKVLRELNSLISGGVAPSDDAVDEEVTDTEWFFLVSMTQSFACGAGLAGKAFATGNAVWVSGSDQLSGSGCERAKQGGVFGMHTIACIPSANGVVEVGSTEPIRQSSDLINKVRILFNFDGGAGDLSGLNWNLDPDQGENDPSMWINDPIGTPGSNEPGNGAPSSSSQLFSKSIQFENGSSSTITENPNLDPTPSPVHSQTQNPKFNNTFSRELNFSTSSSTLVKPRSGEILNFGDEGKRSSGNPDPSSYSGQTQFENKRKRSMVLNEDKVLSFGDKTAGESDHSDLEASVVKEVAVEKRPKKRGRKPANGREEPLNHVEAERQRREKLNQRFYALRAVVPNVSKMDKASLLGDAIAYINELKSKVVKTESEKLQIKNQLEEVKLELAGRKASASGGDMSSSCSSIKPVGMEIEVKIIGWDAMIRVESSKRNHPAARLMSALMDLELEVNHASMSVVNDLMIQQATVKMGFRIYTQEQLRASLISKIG

Results are given in words; binding and its absence hold for the method and conditions named. For some assays here: Binding seen in cells or lysates may run through a third protein. Some results given as binding are weak or reduced against the parent protein; the word gives no strength. Where a sequence is shown, tags or fusion partners need not be part of it.

The target of assay [1] is T1, JAZ8 with C-terminal YFP tag (Arabidopsis thaliana (accession Col-0)) (UniProt Q8LBM2).
T1 sequence: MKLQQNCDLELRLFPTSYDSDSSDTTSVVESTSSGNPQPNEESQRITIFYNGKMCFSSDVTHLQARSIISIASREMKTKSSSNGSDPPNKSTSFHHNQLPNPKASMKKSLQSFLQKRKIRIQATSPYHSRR
Kind of assay: co-IP; transient expression in N. benthamiana leaves, harvested 2 d post-inoculation; total protein extracts incubated with GFP-affinity matrix (Chromotek); immunoblots with anti-GFP and anti-c-Myc.

Assay [2] deals with T2, TOPLESS (TPL), yeast two-hybrid fusion (Arabidopsis thaliana (accession Col-0)) (UniProt Q94AI7).
T2 sequence: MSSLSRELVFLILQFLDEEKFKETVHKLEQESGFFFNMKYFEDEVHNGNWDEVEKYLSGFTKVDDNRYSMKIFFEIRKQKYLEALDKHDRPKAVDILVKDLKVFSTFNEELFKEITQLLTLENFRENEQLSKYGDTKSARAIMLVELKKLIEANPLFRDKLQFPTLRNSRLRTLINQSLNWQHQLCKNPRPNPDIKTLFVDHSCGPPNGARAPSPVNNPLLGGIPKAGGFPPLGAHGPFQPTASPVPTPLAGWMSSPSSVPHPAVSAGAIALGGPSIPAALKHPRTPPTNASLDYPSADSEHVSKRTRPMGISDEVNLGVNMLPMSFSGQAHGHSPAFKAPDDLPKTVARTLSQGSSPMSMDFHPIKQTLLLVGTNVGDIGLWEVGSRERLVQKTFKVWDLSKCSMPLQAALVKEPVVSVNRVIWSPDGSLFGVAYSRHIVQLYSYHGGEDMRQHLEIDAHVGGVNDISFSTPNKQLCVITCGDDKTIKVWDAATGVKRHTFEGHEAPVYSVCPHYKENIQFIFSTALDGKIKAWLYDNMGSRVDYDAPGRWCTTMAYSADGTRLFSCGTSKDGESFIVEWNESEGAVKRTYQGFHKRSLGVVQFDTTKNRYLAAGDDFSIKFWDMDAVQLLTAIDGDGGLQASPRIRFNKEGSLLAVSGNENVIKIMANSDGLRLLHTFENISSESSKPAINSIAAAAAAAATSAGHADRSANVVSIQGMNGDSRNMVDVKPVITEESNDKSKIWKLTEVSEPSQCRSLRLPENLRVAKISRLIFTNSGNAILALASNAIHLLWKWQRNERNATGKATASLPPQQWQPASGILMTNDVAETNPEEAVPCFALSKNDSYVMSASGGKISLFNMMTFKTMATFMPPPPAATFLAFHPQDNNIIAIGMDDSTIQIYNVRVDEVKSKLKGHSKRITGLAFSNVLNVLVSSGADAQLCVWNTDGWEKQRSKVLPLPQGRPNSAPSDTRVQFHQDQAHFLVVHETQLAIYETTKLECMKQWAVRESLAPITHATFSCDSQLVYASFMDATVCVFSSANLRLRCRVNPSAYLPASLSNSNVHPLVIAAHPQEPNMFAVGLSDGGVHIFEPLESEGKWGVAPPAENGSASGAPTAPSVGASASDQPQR
As to the kind of experiment: two-hybrid; Clontech Matchmaker system, yeast strain AH109; vectors derived from pGADT7 and pGBKT7; selective SD-Leu-Trp-His or SD-Leu-Trp-His-Ade media.

The target in assay [3] is MYC4, yeast two-hybrid fusion (Arabidopsis thaliana (accession Col-0)) (UniProt O49687). The description is as above.
Assay [4] concerns the target MYC3, yeast two-hybrid fusion (Arabidopsis thaliana (accession Col-0)) (UniProt Q9FIP9). The description is as above.
The target of assay [5] is MYC2, yeast two-hybrid fusion (Arabidopsis thaliana (accession Col-0)) (UniProt Q39204). The assay is described as above.

B1: TOPLESS (TPL) with C-terminal 4xMyc tag (protein, UniProt Q94AI7 1-1131)
chain: MSSLSRELVFLILQFLDEEKFKETVHKLEQESGFFFNMKYFEDEVHNGNWDEVEKYLSGFTKVDDNRYSMKIFFEIRKQKYLEALDKHDRPKAVDILVKDLKVFSTFNEELFKEITQLLTLENFRENEQLSKYGDTKSARAIMLVELKKLIEANPLFRDKLQFPTLRNSRLRTLINQSLNWQHQLCKNPRPNPDIKTLFVDHSCGPPNGARAPSPVNNPLLGGIPKAGGFPPLGAHGPFQPTASPVPTPLAGWMSSPSSVPHPAVSAGAIALGGPSIPAALKHPRTPPTNASLDYPSADSEHVSKRTRPMGISDEVNLGVNMLPMSFSGQAHGHSPAFKAPDDLPKTVARTLSQGSSPMSMDFHPIKQTLLLVGTNVGDIGLWEVGSRERLVQKTFKVWDLSKCSMPLQAALVKEPVVSVNRVIWSPDGSLFGVAYSRHIVQLYSYHGGEDMRQHLEIDAHVGGVNDISFSTPNKQLCVITCGDDKTIKVWDAATGVKRHTFEGHEAPVYSVCPHYKENIQFIFSTALDGKIKAWLYDNMGSRVDYDAPGRWCTTMAYSADGTRLFSCGTSKDGESFIVEWNESEGAVKRTYQGFHKRSLGVVQFDTTKNRYLAAGDDFSIKFWDMDAVQLLTAIDGDGGLQASPRIRFNKEGSLLAVSGNENVIKIMANSDGLRLLHTFENISSESSKPAINSIAAAAAAAATSAGHADRSANVVSIQGMNGDSRNMVDVKPVITEESNDKSKIWKLTEVSEPSQCRSLRLPENLRVAKISRLIFTNSGNAILALASNAIHLLWKWQRNERNATGKATASLPPQQWQPASGILMTNDVAETNPEEAVPCFALSKNDSYVMSASGGKISLFNMMTFKTMATFMPPPPAATFLAFHPQDNNIIAIGMDDSTIQIYNVRVDEVKSKLKGHSKRITGLAFSNVLNVLVSSGADAQLCVWNTDGWEKQRSKVLPLPQGRPNSAPSDTRVQFHQDQAHFLVVHETQLAIYETTKLECMKQWAVRESLAPITHATFSCDSQLVYASFMDATVCVFSSANLRLRCRVNPSAYLPASLSNSNVHPLVIAAHPQEPNMFAVGLSDGGVHIFEPLESEGKWGVAPPAENGSASGAPTAPSVGASASDQPQR
Consider B1, for which, in assay [1], the binding result was “binds”.

B2: JAZ8, yeast two-hybrid fusion (protein, UniProt Q8LBM2 1-131)
chain: MKLQQNCDLELRLFPTSYDSDSSDTTSVVESTSSGNPQPNEESQRITIFYNGKMCFSSDVTHLQARSIISIASREMKTKSSSNGSDPPNKSTSFHHNQLPNPKASMKKSLQSFLQKRKIRIQATSPYHSRR
Regarding B2, the binding result in assay [2], in assay [3], in assay [4] and in assay [5] was “binds” in each case.
